Test results from patent publication US20210161937A1, “ACTIVATION OF MITOCHONDRIAL UNCOUPLING AS A THERAPEUTIC INTERVENTION” (The Trustees of Columbia University in the City of New York, priority 2018, published 2021).

Assays:
Type in all cases: in vivo
Drosophila [1] = experiment: Feeding assay (CAFE assay); conditions: flies fed 2,4 DNP or BHT relative to ethanol vehicle
Drosophila [2] = experiment: Lifespan analysis of flies fed drug-supplemented adult medium; conditions: controls or per^01 mutants lacking UAS-transgenes; RU486 during adulthood vs vehicle
Experimental: Drosophila were reared from embryos in low-density bottles with standard medium containing 3.8% glucose, 1.9% sucrose, 3% yeast nutritional flake (Lab Scientific), 6.5% cornmeal, 0.8% agar, supplemented with 1.5% methylparaben mix (10% methylparaben in ethanol) and 1% propionic acid. Adult flies that eclosed within a 24 hour period were collected and transferred to “adult medium” containing 3.8% glucose, 1.9% sucrose, 8% cornmeal, 1% agar, and either 0.01%, 0.5%, 3%, 5%, or 10% yeast extract (Difco) supplemented with 1.5% methylparaben mix and 1% propionic acid for lifespan and biochemical analysis. All percentages given in wt/v except methylparaben mix, propionic acid given in v/v.
All drugs were supplemented into cooled (65° C.) liquid adult medium (containing 3% yeast extract) following preparation to the following final concentration(s): RU486 100μg/mL. RU486 (Cayman Chemical) dissolved in ethanol was supplemented into medium after eclosion at a final concentration of 100 μg/mL (with the exception of DaGS>UAS-Ucp4c and controls, 5 μg/mL) vehicle controls were supplemented with same volume of ethanol alone. […]
Newly eclosed flies (˜24 hr) were collected and allowed to mate for 48 hr. […] Death was scored every 1-2 days, with live flies transferred to fresh vials every 2-3 days. Statistical significance was determined by log-rank analysis.

Drosophila [3] = experiment: CO2 respiration assay after mitochondrial drug feeding
Experimental: Measurement of CO2 production was performed similarly to Yatsenko et al. 2014. Briefly, 10 flies were placed in a sealed pipette tip-capillary respirometer (without anesthesia) containing a small amount of soda-lime. Respirometers were placed capillary side down in dH20 containing 0.1% blue food dye in a sealed TLC chamber placed in a 25° C. incubator. Empty sealed respirometers (containing no flies) were used to subtract blue dye background migration from experimental (fly-containing) samples. Flies were tested for 2 hr between at circadian timepoints, and CO2 production rate was indirectly determined by the amount of liquid movement up the capillary per hour after background subtraction. At least 6 groups of 10 flies were used per genotype for quantification for each condition. For mitochondrial drug feeding experiments, flies were placed on food containing the following compounds for 24 hr: 500 μM Oligomycin, 1 mM rotenone, 5 mM 2,4 DNP, 0.5% stearate, or ethanol vehicle controls.

Row | Compound | feeding rate / food intake (Drosophila [1]) | feeding rate / food intake (Drosophila [1]; listed as 2,4 DNP) | lifespan of flies lacking UAS-transgene fed RU486 (Drosophila [2]) | metabolic phenotypes of flies lacking the UAS transgene fed RU486 (Drosophila [3]; RU486 feeding alone, results not shown) | respiration rate (relative CO2 production) in RU486 feeding controls (Drosophila [3]; flies lacking UAS-transgenes fed RU486 or vehicle)
1 | Cc1cc(C(C)(C)C)c(O)c(C(C)(C)C)c1 [BHT, butylated hydroxytoluene] | did not decrease feeding rate; also recorded: no significant difference between the three groups |  |  |  | 
2 | O=[N+]([O-])c1ccc(O)c([N+](=O)[O-])c1 [DNP, 2,4-dinitrophenol] | did not decrease feeding rate | no significant difference between the three groups |  |  | 
3 | CC#C[C@]1(O)CC[C@H]2[C@@H]3CCC4=CC(=O)CCC4=C3[C@@H](c3ccc(N(C)C)cc3)C[C@@]21C [RU486, mifepristone] |  |  | had no influence on lifespan; also recorded: no effect; also recorded: did not influence lifespan | no effect | not affected

“Also recorded” adds a separate entry of the source.
